Experimental data as given in patent US20210317090A1, “AMINO ACID DEPLETION AGENTS AS ANTIPROLIFERATIVE AGENTS” (University of Central Florida Research Foundation, Inc., priority 2018, published 2021).
Some entries share one result that the patent states for a list of compounds.

System: CHO K1 cells
Assay: Cytotoxicity dose-response (MTS cell viability) in CHO K1 cells
Format: cell-based, Chinese hamster
Details: 48 h
Method: CHO K1 Studies. Wild type Chinese hamster ovary (CHO K1) cells were chosen to first study the synthetic compounds' impact on polyamine metabolism. The CHO K1 cell line has high polyamine transport activity and was useful in screening compounds for their polyamine transport inhibitor activity. A dose-response curve was obtained for each compound to determine their toxicity in CHO K1 cells after 48 h incubation. Compound 9 (1666.177) was non-toxic up to the highest dose tested (15 μM).
Regarding the biological studies performed in the following examples, it is noted that CHO K1, CHO-MG, and L3.6pl cells were grown in RPMI 1640 medium supplemented with 10% fetal bovine serum (FBS) and 1% penicillin/streptomycin. All cells were grown at 37° C. under a humidified 5% CO2 atmosphere. […]
This example illustrates aspects according to various embodiments pertaining to IC50 determinations and cell viability studies. […] After drug exposure (e.g., for 48 h for CHO K1 and CHO-MG and 48 h or 72 h for L3.6pl), cell growth was determined by measuring formazan formation from the 3-(4,5dimethylthiazol-2-yl)-5-(3-carboxymethoxyphenyl)-2-(4-sulfenyl)-2H tetrazolium, inner salt (MTS) using SynergyMx Biotek microplate reader for absorbance (490 nm) measurements.^27 All experiments were run in triplicate.

## CC(C)(C)CCN1CCN(C(CNCc2ccccc2)Cc2ccccc2)CC1Cc1ccccc1.Cl.Cl.Cl (stereo not shown) [Compound 9, Benzyl-{2-[3-benzyl-4-(3,3-dimethyl-butyl)-piperazin-1-yl]-3-phenyl-propyl}-amine trihydrochloride salt]
  concentration without apparent toxicity: below 10 μM
